Results are given in words; binding and its absence hold for the method and conditions named. In cells and extracts the contact can be indirect. Some entries that bind do so weakly or less than the wild type. For some of these results: Where a sequence is shown, tags or fusion partners need not be part of it.

The source of these data is publication PMC10940511.

In one experiment the target is T1, Myc-TBK1 (UniProt Q9UHD2).
T1 sequence: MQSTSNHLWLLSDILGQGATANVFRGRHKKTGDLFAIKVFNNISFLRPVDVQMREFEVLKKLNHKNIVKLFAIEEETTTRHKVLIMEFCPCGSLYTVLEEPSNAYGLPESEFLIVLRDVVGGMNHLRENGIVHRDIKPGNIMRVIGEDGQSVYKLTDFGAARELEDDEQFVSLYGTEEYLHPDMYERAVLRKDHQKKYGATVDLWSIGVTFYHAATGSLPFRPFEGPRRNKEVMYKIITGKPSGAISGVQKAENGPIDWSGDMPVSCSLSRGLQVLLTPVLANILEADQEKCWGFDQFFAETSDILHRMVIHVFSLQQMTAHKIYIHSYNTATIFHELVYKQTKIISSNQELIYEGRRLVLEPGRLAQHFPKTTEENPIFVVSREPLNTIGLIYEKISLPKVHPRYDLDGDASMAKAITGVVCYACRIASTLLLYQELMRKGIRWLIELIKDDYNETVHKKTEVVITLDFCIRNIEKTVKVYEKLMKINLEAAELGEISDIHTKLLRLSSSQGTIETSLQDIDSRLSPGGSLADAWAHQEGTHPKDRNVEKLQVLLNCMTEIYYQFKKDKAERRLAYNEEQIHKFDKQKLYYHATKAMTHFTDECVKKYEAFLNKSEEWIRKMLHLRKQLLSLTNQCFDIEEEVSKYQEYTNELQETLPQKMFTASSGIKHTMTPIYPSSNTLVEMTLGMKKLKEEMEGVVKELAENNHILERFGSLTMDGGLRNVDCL
The experiment is described as follows: co-IP; Myc-TBK1 and HA-IRF3 co-transfected in HEK 293T in the presence or absence of GFP-TRIM28; NP-40 lysis buffer, washes with 250 mM NaCl.

The target in experiment [1] is T2, TBK1, endogenous in MEF cells (mouse (endogenous in MEF)) (UniProt Q9WUN2).
T2 sequence: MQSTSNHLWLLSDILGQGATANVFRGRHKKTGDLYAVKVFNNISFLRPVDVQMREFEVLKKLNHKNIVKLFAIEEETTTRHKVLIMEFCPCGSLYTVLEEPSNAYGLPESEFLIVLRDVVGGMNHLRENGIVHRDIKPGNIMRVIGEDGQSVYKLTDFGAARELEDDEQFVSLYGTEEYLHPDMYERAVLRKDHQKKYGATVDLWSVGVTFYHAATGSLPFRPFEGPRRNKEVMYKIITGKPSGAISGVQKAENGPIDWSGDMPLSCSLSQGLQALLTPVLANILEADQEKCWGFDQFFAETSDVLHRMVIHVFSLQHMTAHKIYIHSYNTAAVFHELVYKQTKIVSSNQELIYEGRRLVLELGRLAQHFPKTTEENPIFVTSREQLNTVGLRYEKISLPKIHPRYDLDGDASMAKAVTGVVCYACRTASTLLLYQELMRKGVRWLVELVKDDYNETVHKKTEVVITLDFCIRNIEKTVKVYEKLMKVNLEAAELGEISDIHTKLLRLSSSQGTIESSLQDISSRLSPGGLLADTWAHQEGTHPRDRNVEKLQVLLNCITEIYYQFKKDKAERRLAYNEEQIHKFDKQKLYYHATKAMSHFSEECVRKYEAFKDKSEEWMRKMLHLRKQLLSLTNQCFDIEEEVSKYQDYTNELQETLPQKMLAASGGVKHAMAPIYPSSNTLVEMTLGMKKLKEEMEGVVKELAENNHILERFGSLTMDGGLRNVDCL
The experiment is described as follows: co-IP; endogenous proteins in MEF cells (for TBK1-IRF3: NT CTRL MEFs), transfected with poly I:C (2.5 µg/mL) or ISD (2 µg/mL) for 3 h; control IgG or TBK1 immunoprecipitation; NP-40 lysis buffer, washes with 250 mM NaCl.

Experiment [2] has as its target T3, FLAG-TBK1 (TANK binding kinase 1), Q9UHD2.
T3 chain: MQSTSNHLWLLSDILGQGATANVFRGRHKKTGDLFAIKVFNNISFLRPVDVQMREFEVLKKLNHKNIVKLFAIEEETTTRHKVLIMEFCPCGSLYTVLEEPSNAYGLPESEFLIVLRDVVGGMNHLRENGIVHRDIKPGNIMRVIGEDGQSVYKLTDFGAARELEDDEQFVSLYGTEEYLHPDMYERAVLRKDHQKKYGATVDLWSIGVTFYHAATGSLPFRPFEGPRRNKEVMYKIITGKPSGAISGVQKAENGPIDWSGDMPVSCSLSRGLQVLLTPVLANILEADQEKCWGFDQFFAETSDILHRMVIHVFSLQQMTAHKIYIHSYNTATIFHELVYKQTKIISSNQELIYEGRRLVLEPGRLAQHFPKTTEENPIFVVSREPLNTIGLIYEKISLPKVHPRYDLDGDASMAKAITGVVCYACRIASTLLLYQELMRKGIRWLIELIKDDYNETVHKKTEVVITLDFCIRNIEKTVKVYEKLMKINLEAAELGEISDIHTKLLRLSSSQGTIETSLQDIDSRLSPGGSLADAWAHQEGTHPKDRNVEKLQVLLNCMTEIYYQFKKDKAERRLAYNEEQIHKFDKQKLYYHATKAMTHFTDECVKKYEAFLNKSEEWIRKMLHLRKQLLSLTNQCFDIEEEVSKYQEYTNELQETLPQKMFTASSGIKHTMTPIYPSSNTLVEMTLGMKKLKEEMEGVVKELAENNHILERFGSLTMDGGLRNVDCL
The experiment in a line: co-IP; tagged TRIM28 constructs and tagged TBK1 co-transfected in HEK 293T; NP-40 lysis buffer (50 mM Tris-Cl pH 7.4, 150 mM NaCl, 1 mM EDTA, 1% NP-40), pre-cleared lysates with antibody overnight at 4°C, protein A magnetic beads 4 h, washes with 250 mM NaCl; precipitating antibody not named for each …. To be noted: remark: other sources report otherwise.

The target of the next experiment is T4, HA-TBK1, Q9UHD2.
T4 chain: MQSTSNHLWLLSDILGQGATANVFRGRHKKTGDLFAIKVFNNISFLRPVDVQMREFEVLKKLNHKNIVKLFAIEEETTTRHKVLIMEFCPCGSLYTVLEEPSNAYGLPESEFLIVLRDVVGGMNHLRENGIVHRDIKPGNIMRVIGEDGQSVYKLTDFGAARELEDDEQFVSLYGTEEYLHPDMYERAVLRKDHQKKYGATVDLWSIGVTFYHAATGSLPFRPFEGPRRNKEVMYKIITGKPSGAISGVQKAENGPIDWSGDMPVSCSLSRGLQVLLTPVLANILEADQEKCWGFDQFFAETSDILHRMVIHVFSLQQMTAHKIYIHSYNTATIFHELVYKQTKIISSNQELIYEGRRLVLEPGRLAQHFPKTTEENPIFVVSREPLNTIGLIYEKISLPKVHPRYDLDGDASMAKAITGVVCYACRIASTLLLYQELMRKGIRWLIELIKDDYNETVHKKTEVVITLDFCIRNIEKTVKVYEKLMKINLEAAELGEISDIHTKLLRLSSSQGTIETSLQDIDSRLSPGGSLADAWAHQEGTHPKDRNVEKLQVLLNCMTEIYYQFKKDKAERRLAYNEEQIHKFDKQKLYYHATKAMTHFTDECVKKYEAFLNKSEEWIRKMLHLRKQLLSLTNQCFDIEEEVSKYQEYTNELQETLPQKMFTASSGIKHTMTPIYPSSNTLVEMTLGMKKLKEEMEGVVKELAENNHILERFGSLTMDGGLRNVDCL
Described as above. To be noted: remark: other sources report otherwise.

B1: HA-IRF3 (interferon regulatory factor 3) (protein, UniProt Q14653 1-427)
chain: MGTPKPRILPWLVSQLDLGQLEGVAWVNKSRTRFRIPWKHGLRQDAQQEDFGIFQAWAEATGAYVPGRDKPDLPTWKRNFRSALNRKEGLRLAEDRSKDPHDPHKIYEFVNSGVGDFSQPDTSPDTNGGGSTSDTQEDILDELLGNMVLAPLPDPGPPSLAVAPEPCPQPLRSPSLDNPTPFPNLGPSENPLKRLLVPGEEWEFEVTAFYRGRQVFQQTISCPEGLRLVGSEVGDRTLPGWPVTLPDPGMSLTDRGVMSYVRHVLSCLGGGLALWRAGQWLWAQRLGHCHTYWAVSEELLPNSGHGPDGEVPKDKEGGVFDLGPFIVDLITFTEGSGRSPRYALWFCVGESWPQDQPWTKRLVMVKVVPTCLRALVEMARVGGASSLENTVDLHISNSHPLSLTSDQYKAYLQDLVEGMDFQGPGES
Consider B1, for which the binding entry with Myc-TBK1 is “binds”.

B2: IRF3, endogenous in MEF cells (protein, UniProt P70671 1-419)
chain: METPKPRILPWLVSQLDLGQLEGVAWLDESRTRFRIPWKHGLRQDAQMADFGIFQAWAEASGAYTPGKDKPDVSTWKRNFRSALNRKEVLRLAADNSKDPYDPHKVYEFVTPGARDFVHLGASPDTNGKSSLPHSQENLPKLFDGLILGPLKDEGSSDLAIVSDPSQQLPSPNVNNFLNPAPQENPLKQLLAEEQWEFEVTAFYRGRQVFQQTLFCPGGLRLVGSTADMTLPWQPVTLPDPEGFLTDKLVKEYVGQVLKGLGNGLALWQAGQCLWAQRLGHSHAFWALGEELLPDSGRGPDGEVHKDKDGAVFDLRPFVADLIAFMEGSGHSPRYTLWFCMGEMWPQDQPWVKRLVMVKVVPTCLKELLEMAREGGASSLKTVDLHISNSQPISLTSDQYKAYLQDLVEDMDFQATGNI
In the case of B2, in experiment [1], the binding entry is “binds”.

B3: HA-TRIM28 (tripartite motif containing 28), Q13263 1-835 (protein)
chain: MAASAAAASAAAASAASGSPGPGEGSAGGEKRSTAPSAAASASASAAASSPAGGGAEALELLEHCGVCRERLRPEREPRLLPCLHSACSACLGPAAPAAANSSGDGGAAGDGTVVDCPVCKQQCFSKDIVENYFMRDSGSKAATDAQDANQCCTSCEDNAPATSYCVECSEPLCETCVEAHQRVKYTKDHTVRSTGPAKSRDGERTVYCNVHKHEPLVLFCESCDTLTCRDCQLNAHKDHQYQFLEDAVRNQRKLLASLVKRLGDKHATLQKSTKEVRSSIRQVSDVQKRVQVDVKMAILQIMKELNKRGRVLVNDAQKVTEGQQERLERQHWTMTKIQKHQEHILRFASWALESDNNTALLLSKKLIYFQLHRALKMIVDPVEPHGEMKFQWDLNAWTKSAEAFGKIVAERPGTNSTGPAPMAPPRAPGPLSKQGSGSSQPMEVQEGYGFGSGDDPYSSAEPHVSGVKRSRSGEGEVSGLMRKVPRVSLERLDLDLTADSQPPVFKVFPGSTTEDYNLIVIERGAAAAATGQPGTAPAGTPGAPPLAGMAIVKEEETEAAIGAPPTATEGPETKPVLMALAEGPGAEGPRLASPSGSTSSGLEVVAPEGTSAPGGGPGTLDDSATICRVCQKPGDLVMCNQCEFCFHLDCHLPALQDVPGEEWSCSLCHVLPDLKEEDGSLSLDGADSTGVVAKLSPANQRKCERVLLALFCHEPCRPLHQLATDSTFSLDQPGGTLDLTLIRARLQEKLSPPYSSPQEFAQDVGRMFKQFNKLTEDKADVQSIIGLQRFFETRMNEAFGDTKFSAVLVEPPPMSLPGAGLSSQELSGGPGDGP
For B3, the binding result in experiment [2] is “binds”.

B4: FLAG-TRIM28 full length (FL), Q13263 1-835 (protein)
chain: MAASAAAASAAAASAASGSPGPGEGSAGGEKRSTAPSAAASASASAAASSPAGGGAEALELLEHCGVCRERLRPEREPRLLPCLHSACSACLGPAAPAAANSSGDGGAAGDGTVVDCPVCKQQCFSKDIVENYFMRDSGSKAATDAQDANQCCTSCEDNAPATSYCVECSEPLCETCVEAHQRVKYTKDHTVRSTGPAKSRDGERTVYCNVHKHEPLVLFCESCDTLTCRDCQLNAHKDHQYQFLEDAVRNQRKLLASLVKRLGDKHATLQKSTKEVRSSIRQVSDVQKRVQVDVKMAILQIMKELNKRGRVLVNDAQKVTEGQQERLERQHWTMTKIQKHQEHILRFASWALESDNNTALLLSKKLIYFQLHRALKMIVDPVEPHGEMKFQWDLNAWTKSAEAFGKIVAERPGTNSTGPAPMAPPRAPGPLSKQGSGSSQPMEVQEGYGFGSGDDPYSSAEPHVSGVKRSRSGEGEVSGLMRKVPRVSLERLDLDLTADSQPPVFKVFPGSTTEDYNLIVIERGAAAAATGQPGTAPAGTPGAPPLAGMAIVKEEETEAAIGAPPTATEGPETKPVLMALAEGPGAEGPRLASPSGSTSSGLEVVAPEGTSAPGGGPGTLDDSATICRVCQKPGDLVMCNQCEFCFHLDCHLPALQDVPGEEWSCSLCHVLPDLKEEDGSLSLDGADSTGVVAKLSPANQRKCERVLLALFCHEPCRPLHQLATDSTFSLDQPGGTLDLTLIRARLQEKLSPPYSSPQEFAQDVGRMFKQFNKLTEDKADVQSIIGLQRFFETRMNEAFGDTKFSAVLVEPPPMSLPGAGLSSQELSGGPGDGP
Turning to B4, the binding entry with HA-TBK1, Q9UHD2 was “binds”.
